These are yes or no findings as the source states them, for the method shown. In cells and extracts the contact can be indirect. Some binding calls cover weakened binding; strength is not graded here.

Amino acid sequences for entries named in this document (tags omitted).
UniProt P37238: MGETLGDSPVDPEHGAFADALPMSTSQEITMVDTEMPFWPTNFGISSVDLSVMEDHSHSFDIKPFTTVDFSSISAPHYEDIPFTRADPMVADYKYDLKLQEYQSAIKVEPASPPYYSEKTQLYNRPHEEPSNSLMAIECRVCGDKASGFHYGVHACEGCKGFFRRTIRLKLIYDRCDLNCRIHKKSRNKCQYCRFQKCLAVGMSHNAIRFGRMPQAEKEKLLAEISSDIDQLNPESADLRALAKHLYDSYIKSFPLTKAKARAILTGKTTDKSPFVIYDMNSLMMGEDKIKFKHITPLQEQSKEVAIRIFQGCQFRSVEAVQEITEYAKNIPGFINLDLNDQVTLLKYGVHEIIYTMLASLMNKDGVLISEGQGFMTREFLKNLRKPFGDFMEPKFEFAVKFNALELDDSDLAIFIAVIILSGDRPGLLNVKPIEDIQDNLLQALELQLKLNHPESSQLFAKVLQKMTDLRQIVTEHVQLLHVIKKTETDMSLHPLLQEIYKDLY
UniProt Q60974: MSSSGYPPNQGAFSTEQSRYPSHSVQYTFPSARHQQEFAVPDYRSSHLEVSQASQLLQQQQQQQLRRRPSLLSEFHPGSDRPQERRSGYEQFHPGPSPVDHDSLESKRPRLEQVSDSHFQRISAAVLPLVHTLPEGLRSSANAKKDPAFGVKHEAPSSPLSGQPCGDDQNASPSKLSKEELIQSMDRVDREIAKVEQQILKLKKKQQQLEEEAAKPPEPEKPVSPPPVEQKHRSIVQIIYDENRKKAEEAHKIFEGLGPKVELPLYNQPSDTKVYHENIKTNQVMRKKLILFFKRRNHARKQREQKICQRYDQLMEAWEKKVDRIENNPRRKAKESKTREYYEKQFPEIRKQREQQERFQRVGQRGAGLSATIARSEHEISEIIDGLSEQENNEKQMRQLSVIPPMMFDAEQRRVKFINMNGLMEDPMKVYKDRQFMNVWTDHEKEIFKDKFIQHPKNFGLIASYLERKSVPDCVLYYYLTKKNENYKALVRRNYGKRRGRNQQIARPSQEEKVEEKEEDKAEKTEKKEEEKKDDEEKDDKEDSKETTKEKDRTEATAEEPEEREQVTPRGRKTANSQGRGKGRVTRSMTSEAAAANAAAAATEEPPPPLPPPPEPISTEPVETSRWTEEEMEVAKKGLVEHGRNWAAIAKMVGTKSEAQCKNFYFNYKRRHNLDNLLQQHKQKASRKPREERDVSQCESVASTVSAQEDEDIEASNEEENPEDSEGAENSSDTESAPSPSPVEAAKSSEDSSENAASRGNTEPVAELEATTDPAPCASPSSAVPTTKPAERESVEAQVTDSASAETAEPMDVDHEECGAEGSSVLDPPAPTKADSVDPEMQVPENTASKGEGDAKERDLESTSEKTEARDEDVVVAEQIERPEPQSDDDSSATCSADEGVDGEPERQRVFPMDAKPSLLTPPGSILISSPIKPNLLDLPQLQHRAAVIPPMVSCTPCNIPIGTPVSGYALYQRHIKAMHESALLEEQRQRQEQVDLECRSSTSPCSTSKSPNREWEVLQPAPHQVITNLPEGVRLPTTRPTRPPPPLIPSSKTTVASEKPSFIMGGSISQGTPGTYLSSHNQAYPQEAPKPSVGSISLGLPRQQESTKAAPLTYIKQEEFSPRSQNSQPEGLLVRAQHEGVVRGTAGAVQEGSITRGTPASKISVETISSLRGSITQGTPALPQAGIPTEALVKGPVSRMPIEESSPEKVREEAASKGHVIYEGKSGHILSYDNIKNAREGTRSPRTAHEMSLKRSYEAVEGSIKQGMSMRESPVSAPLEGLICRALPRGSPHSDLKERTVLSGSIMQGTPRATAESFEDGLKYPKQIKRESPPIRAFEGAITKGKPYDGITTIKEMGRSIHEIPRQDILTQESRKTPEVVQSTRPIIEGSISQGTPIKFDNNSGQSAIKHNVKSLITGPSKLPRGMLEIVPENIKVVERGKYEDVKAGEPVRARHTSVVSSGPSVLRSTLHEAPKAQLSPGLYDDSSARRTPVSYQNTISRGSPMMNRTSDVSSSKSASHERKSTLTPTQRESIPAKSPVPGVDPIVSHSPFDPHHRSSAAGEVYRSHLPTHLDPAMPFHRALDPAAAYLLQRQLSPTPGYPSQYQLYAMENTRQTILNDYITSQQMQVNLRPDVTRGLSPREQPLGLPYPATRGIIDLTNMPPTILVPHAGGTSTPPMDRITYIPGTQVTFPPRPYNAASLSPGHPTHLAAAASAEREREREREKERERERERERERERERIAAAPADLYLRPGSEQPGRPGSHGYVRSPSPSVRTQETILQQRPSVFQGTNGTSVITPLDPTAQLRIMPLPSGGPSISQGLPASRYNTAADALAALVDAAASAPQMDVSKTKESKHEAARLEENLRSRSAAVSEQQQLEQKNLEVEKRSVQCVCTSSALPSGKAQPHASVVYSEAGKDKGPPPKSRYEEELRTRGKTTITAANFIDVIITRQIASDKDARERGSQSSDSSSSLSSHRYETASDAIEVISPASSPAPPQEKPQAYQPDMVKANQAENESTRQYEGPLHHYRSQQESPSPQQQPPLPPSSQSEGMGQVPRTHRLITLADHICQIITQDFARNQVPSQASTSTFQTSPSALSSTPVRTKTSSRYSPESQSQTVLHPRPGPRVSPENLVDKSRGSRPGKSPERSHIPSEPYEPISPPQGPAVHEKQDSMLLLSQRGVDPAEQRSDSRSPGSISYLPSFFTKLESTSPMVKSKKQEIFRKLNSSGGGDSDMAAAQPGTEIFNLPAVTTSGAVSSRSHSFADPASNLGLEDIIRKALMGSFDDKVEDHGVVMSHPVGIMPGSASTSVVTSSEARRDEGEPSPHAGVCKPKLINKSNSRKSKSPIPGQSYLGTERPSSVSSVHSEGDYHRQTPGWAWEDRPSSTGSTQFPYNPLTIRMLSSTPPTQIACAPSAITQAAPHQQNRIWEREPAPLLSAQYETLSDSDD

This experiment concerns the target T1, Sirtuin 1 (SIRT1) (mouse (endogenous in 3T3-L1)) (UniProt Q923E4).
T1 sequence: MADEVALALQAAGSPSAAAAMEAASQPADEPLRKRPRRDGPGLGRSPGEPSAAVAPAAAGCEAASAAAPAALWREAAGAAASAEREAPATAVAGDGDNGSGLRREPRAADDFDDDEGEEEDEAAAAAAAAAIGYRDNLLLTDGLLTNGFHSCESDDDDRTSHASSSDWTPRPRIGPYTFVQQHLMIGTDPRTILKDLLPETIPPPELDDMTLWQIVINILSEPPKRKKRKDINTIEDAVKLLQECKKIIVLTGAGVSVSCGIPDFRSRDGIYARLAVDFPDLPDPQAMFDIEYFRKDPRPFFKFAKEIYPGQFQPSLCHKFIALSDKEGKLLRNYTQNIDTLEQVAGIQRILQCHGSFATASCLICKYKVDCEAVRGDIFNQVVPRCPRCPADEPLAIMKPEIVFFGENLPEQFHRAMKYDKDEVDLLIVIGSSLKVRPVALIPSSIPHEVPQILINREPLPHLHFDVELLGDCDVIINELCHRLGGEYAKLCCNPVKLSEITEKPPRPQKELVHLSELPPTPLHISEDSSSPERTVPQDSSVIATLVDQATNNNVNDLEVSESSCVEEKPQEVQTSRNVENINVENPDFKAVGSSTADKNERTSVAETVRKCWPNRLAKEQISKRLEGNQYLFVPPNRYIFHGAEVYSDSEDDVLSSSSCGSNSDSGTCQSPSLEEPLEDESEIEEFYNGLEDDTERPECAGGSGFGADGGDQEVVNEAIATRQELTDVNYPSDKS
As to the kind of experiment: co-IP; nuclear extracts of differentiated 3T3-L1 adipocytes treated with 100 µmol/L LA or t10c12 CLA for 12 h; immunoprecipitated overnight with antibody to SIRT1, protein A agarose beads, washed five times; immunoblot for SIRT1, PPARγ or NCoR1.

“peroxisome proliferator-activated receptor γ (PPARγ) (from UniProt P37238 1-505)”: the binding result was “binds”. For “nuclear receptor corepressor 1 (NCoR1) (from UniProt Q60974 1-2453)” the value was “binds”.

Source of the values: paper PMC3498327.
